According to PubChem BioAssay AID540276 (National Center for Advancing Translational Sciences (NCATS), 2011):
In all, about 300,000 compounds went through this assay and about 5,400 (1.8%) were called active. Inconclusive means that the source gave no clear call. Such entries were picked first, then a sample of the others. Calls follow the shape of the full dose curve; tested in HEK293 cells. A potency beside an inconclusive call is a rough fit, not a confirmed value.
% is scaled to controls: 0 for no effect and ±100 for the full control effect; potency is read from the fitted curve at half-maximal effect.

Experiment: qHTS for inhibitors of binding or entry into cells for Marburg Virus
Conditions: Marburg virus pseudotyped entry inhibition, cell reporter; activity change, negative = inhibition: at 37.8 µM (top of the series) unless noted
For `Cc1nc2ccccc2cc1C(=O)N/N=C/c1ccc([N+](=O)[O-])cc1`, the Potency was inconclusive: 0.103 µM [activator, full curve, poor fit].
In the case of `COc1ccc(C(C)(C)C)cc1NC(=O)c1ccc[n+]([O-])c1`, the Potency is reported as inconclusive: 14.1 µM [activator, partial curve, poor fit].
With `COC(=O)c1ccc(NC(=S)NCCc2ccc(OC)cc2)cc1` the Potency was inconclusive: 4.47 µM [inhibitor, full curve, poor fit].
For `CCC(=NCc1ccco1)c1c(O)n(-c2ccc(Cl)cc2)c(=O)[nH]c1=O`, the Potency was inconclusive: 3.16 µM [activator, single point].
For `Cn1c(N)c(C(=O)COC(=O)c2cccc(S(=O)(=O)N3CCCCC3)c2)c(=O)n(C)c1=O`, the Potency was inconclusive: 6.31 µM [inhibitor, single point].
In the case of `Cc1ccc(NC2=C(Cl)C(=O)OC2OC(=O)c2ccccc2C)cc1` (configuration not stated), the Potency is reported as inconclusive: 11.2 µM [inhibitor, partial curve, poor fit].
In the case of `CCN(CC(=O)Nc1ccc(NC(C)=O)cc1)C(=O)/C=C/c1cn(Cc2ccccc2)nc1-c1cccnc1`, the Potency is reported as “inactive”.
In the case of `CCN(CC(=O)Nc1cc(Cl)ccc1C)C(=O)CCS(=O)(=O)c1ccc(C)cc1`, the Potency is reported as inconclusive: 1.58 µM [activator, single point].
With `COc1ccc(NC(=O)c2c(C)oc3ccc(O)c(CN4CCOCC4)c23)cc1` the Potency was inconclusive: 1.41 µM [activator, partial curve, poor fit].
In the case of `CC1CC(C)CN(C(=S)Nc2ccc(SC(F)F)cc2)C1` (configuration not stated), the Potency is reported as “inactive”.
For `NC(=O)COC(=O)C(Cc1ccccc1)NS(=O)(=O)c1ccccc1F` (configuration not stated), the Potency was inconclusive: 3.55 µM [activator, single point].
For `COc1c(C(=O)NCCSC(C)(C)C)ccc2ccccc12`, the Potency was “inactive”.
In the case of `O=C(O)C=C1C2CC3CC(C2)CC1C3`, the Potency is reported as inconclusive: 1.16 µM [inhibitor, single point].
In the case of `CCOC(=O)CNC(=O)c1ccc(SCC)cc1`, the Potency is reported as inconclusive: 35.5 µM [inhibitor, single point].
With `CN1CCN(CCC(=O)Nc2ccc(Cl)cc2)CC1` the Potency was “inactive”.
For `CCCCNC(=S)N(C)/N=C/c1c(C)[nH]c2ccccc12`, the Potency was inconclusive: 0.082 µM [inhibitor, partial curve, poor fit].
With `COc1ccccc1CCC(=O)Nc1cccc(S(=O)(=O)N2CCOCC2)c1` the Potency was inconclusive: 0.501 µM [inhibitor, partial curve, poor fit].
For `COC(=O)NC(c1ccc(Cl)cc1)C(C(C)=O)C(=O)OC` (configuration not stated), the Potency was “inactive”.
With `Cc1cc[n+](CC(=O)c2cc3ccccc3oc2=O)cc1` the Potency was “inactive”.
In the case of `CC1=Nc2ccccc2N=C(NC(=O)c2ccccc2)C1c1ccc(Cl)cc1` (configuration not stated), the Potency is reported as inconclusive: 10 µM [inhibitor, partial curve, poor fit].
In the case of `C=CCNC(=S)N/N=C/c1cn(C)c2ccccc12`, the Potency is reported as inconclusive: 0.447 µM [inhibitor, full curve, poor fit].
For `CCOC(=O)c1csc(NC(=O)CCSc2ccccc2)n1`, the Potency was inconclusive: 4.61 µM [inhibitor, partial curve, poor fit].
For `COc1ccc(OC)c(NS(=O)(=O)c2ccc(Br)s2)c1`, the Potency was inconclusive: 35.5 µM [inhibitor, single point].
With `CCn1cc(C(=O)O)c(=O)c2cc3c(cc21)OCO3` the Potency was inconclusive: 1.16 µM [activator, full curve, poor fit].
With `COc1ccc(NC(=O)c2cccc(N3C(=O)C4C5C=CC(C6CC56)C4C3=O)c2)cc1` (configuration not stated) the Potency was inconclusive: 35.5 µM [inhibitor, single point].
With `CCOc1ccc(NC(=O)c2oc3ccccc3c2NC(=O)Cc2cccc(C)c2)cc1` the Potency was “inactive”.
With `COc1ccccc1-c1nnn(C/C(N)=N/O)n1` the Potency was inconclusive: 6.31 µM [activator, single point].
With `Cc1c(OCc2ccccc2)c(=O)ccn1Cc1ccc(F)cc1` the Potency was inconclusive: 1.26 µM [inhibitor, partial curve, poor fit].
For `CCn1nc(C)cc1-c1n[nH]c(=S)n1N`, the Potency was “inactive”.
For `O=C(Nc1ccc(OCc2ccccc2)cc1)Nc1ccccc1C(=O)NCCCN1CCOCC1`, the Potency was “inactive”.
In the case of `CCOc1ccc(NC(=O)Cn2nnc(-c3ccccc3NC(=O)CC)n2)cc1`, the Potency is reported as inconclusive: 20.6 µM [inhibitor, partial curve, poor fit].
For `Cc1cccc(C)c1NC(=O)COn1nnc2ccc(C(F)(F)F)cc21`, the Potency was inconclusive: 35.5 µM [inhibitor, single point].
For `Cc1onc(-c2ccccc2Cl)c1C(=O)N1CCC(Cc2ccccc2)CC1`, the Potency was inconclusive: 5.62 µM [inhibitor, full curve, poor fit].
For `Cc1ccc(O)c(-c2n[nH]c3c2C(c2ccccc2F)N(Cc2ccco2)C3=O)c1` (configuration not stated), the Potency was inconclusive: 22.4 µM [inhibitor, single point].
In the case of `COc1ccccc1NC(=O)CN(c1ccc(C23CC4CC(CC(C4)C2)C3)cc1)S(C)(=O)=O`, the Potency is reported as inconclusive: 10.3 µM [inhibitor, single point].
For `CCC(=O)N1CCN(c2ccc(Cl)cc2NC(=O)c2ccc(N3CCCC3)c([N+](=O)[O-])c2)CC1`, the Potency was inconclusive: 20.6 µM [inhibitor, single point].
In the case of `Cc1ccc(-c2nnc(SCC(=O)Nc3ccc4c(c3)oc3ccccc34)n2C)c(Cl)c1`, the Potency is reported as “inactive”.
With `Cc1cc(OCC(=O)N(C)C2CCCCC2)ccc1Cl` the Potency was inconclusive: 2.82 µM [inhibitor, full curve].
With `CC1(C)C2CCC1(CS(=O)(=O)Nc1ccc(S(=O)(=O)N3CCCCC3)cc1)C(=O)C2` (configuration not stated) the Potency was inconclusive: 11.2 µM [inhibitor, partial curve].
In the case of `Cc1cc(C)c(S(=O)(=O)Oc2ccccc2[N+](=O)[O-])c(C)c1`, the Potency is reported as inconclusive: 7.08 µM [inhibitor, partial curve].
With `CCc1nn(CC(=O)N2CCN(c3cccc(C)c3C)CC2)c(=O)c2cc3sccc3n12` the Potency was “inactive”.
In the case of `O=C(Cc1coc2ccc3ccccc3c12)NC1CCCc2ccccc21` (configuration not stated), the Potency is reported as inconclusive: 35.5 µM [inhibitor, single point].
In the case of `Cc1c(C(=O)O)oc2c1ccc1ccccc12`, the Potency is reported as “inactive”.
With `CCn1nc([N+](=O)[O-])c2c(-c3nc4ccccc4o3)c(N)n(CCCOC)c2c1=O` the Potency was inconclusive: 0.316 µM [inhibitor, full curve, poor fit].
In the case of `Cc1ccc(N2CCN(C(=O)c3ccccc3NC(=O)C3CCCCC3C(=O)O)CC2)cc1` (configuration not stated), the Potency is reported as inconclusive: 5.62 µM [inhibitor, single point].
With `Cc1ccc(C(=O)Nc2cccc3ccccc23)o1` the Potency was “inactive”.
With `O=C(COC(=O)Cc1n[nH]c(=O)c2ccccc12)NNC(=O)c1ccc(Cl)cc1` the Potency was inconclusive: 3.55 µM [inhibitor, single point].
In the case of `CC(CCc1ccc(O)cc1)NCCC(c1ccccc1)c1ccccc1` (configuration not stated), the Potency is reported as active: 7.08 µM.
In the case of `CCC=CC[C@@]1(C(=O)OC)C=C[C@@H](C)[C@H](c2ccccc2Br)N1C(=O)C(F)(F)F`, the Potency is reported as “inactive”.
In the case of `CC(=O)N/N=C/c1cc2c(cc1[N+](=O)[O-])OCO2`, the Potency is reported as inconclusive: 4.47 µM [inhibitor, single point].
With `Cn1c(=O)n(C)c2cc(NC(=O)c3ccc(F)cc3)c(Br)cc21` the Potency was inconclusive: 35.5 µM [inhibitor, single point].
For `Nc1ccc(C(=O)Nc2ccc3nc(-c4cccnc4)[nH]c3c2)cc1`, the Potency was “inactive”.
In the case of `CC(=O)N1N=C(c2cccc(NS(=O)(=O)c3ccc(C)cc3)c2)CC1c1ccco1` (configuration not stated), the Potency is reported as inconclusive: 12.6 µM [inhibitor, partial curve, poor fit].
With `COc1ccc(NC2CCCN(C(=O)CCN3CCCC3=O)C2)cc1` (configuration not stated) the Potency was inconclusive: 17.8 µM [activator, single point].
With `COc1ccc(-c2cc3nc(C)c(CCC(=O)NC(C)CCc4ccco4)c(C)n3n2)c(OC)c1` (configuration not stated) the Potency was inconclusive: 11.2 µM [inhibitor, partial curve, poor fit].
For `O=C(C[n+]1cccc(/C=N/O)c1)N1CCCCCC1`, the Potency was inconclusive: 3.16 µM [inhibitor, single point].
In the case of `COc1cc(F)ccc1S(=O)(=O)N1CCN(Cc2ccccc2)CC1`, the Potency is reported as “inactive”.
In the case of `CCCN(CC1CC1)c1nc(N)c2c(N)nc(OC)cc2c1C#N`, the Potency is reported as inconclusive: 35.5 µM [inhibitor, partial curve, poor fit].
For `CN(C)CCOC1(Cc2ccc(F)cc2)CCC(C(C)(C)C)CC1` (configuration not stated), the Potency was active: 11.2 µM.
In the case of `Cc1sc2ncnc(OCC(=O)c3ccc(S(=O)(=O)N4CCCC4)cc3)c2c1C`, the Potency is reported as inconclusive: 7.3 µM [inhibitor, partial curve, poor fit].
For `N#Cc1cc([N+](=O)[O-])ccc1NCCN1CCOCC1`, the activity change, negative = inhibition was inconclusive: 19.1% [activator] [at 46.1 µM].
With `O=C(CCn1c(=O)sc2ccccc21)Nc1cccnc1` the Potency was “inactive”.
With `O=C(N/N=C/c1ccccc1Br)c1ccc(CSc2cccc3cccnc23)cc1` the Potency was inconclusive: 1.64 µM [inhibitor, full curve, poor fit].
For `CC(C)(C)NCC(O)(c1ccc(Cl)cc1)c1ccc(Cl)cc1`, the Potency was active: 3.16 µM.
With `COC(=O)c1sc(NC(=O)/C=C/c2ccc(C)o2)nc1C` the Potency was inconclusive: 5.62 µM [activator, single point].
In the case of `CN1CC(C(=O)O)Cc2c1ccc1ccccc21` (configuration not stated), the Potency is reported as inconclusive: 7.08 µM [activator, full curve, poor fit].
With `O=C1OC(c2cccs2)=N/C1=C\c1ccc(-c2cccc(Cl)c2)o1` the Potency was “inactive”.
